# Source: PubChem BioAssay AID504834 (National Center for Advancing Translational Sciences (NCATS), 2011)
# About 22,000 (6.9%) of roughly 320,000 compounds were called active. Inconclusive results, whose numbers are uncertain, are shown with a selection of clear calls. The call rests on the fitted dose curve; in most records, active means well fitted inhibition curve with a large enough effect; inconclusive means small, poorly fitted or top-dose-only effect, or another doubt; inactive means no such curve, though single readings can be large or run the other way. Potencies beside an inconclusive call are fits to weak or partial responses and may not hold up.
# Assay: Primary qHTS for delayed death inhibitors of the malarial parasite plastid, 96 hour incubation
# Conditions: P. falciparum luciferase reporter growth; series mostly up to 28.7 µM
# Outline: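 Two parasite generations (96 h, 37 C, 5% CO2) of compound exposure in infected erythrocytes (0.05% parasitemia, 2% hematocrit). Luciferase-reporter P. falciparum; decreased luminescence indicates inhibited growth, aimed at apicoplast-acting delayed death.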
# On the % scale 0 is the no-effect control and ±100 the full control effect; potency means the concentration at half of the fitted maximal effect.
SMILES,Potency,"activity change, negative = inhibition"
CCOC(=O)C1CCN(c2nc3c(C)cccn3c(=O)c2/C=C(\C#N)S(=O)(=O)c2ccccc2)CC1,"inconclusive: 16.5 µM [inhibitor, single point]",–
Cc1ccc(-c2ccc(SCC(=O)Nc3ccc4c(c3)OCCO4)nn2)cc1,inactive,–
CCCc1nc(C(C)(C)O)c(C(=O)OCc2oc(=O)oc2C)n1Cc1ccc(-c2ccccc2-c2nn[nH]n2)cc1,"inconclusive: 13.5 µM [inhibitor, partial curve, poor fit]",–
CCN(CC)C(=O)CC(c1ccc(F)cc1)c1ccc(OC(C)C)cc1 (stereo not given),inactive,–
Cc1c(C(=O)Nc2cccc(Cl)c2)cn2c(nc3ccccc32)c1C#N,active: 2.94 µM,–
CC1CCC(C(=O)c2c(O)c3ccccc3oc2=O)CC1 (stereo not given),inactive,–
COc1ccc(C(CNC(=O)c2ccc(NS(=O)(=O)c3ccc4c(c3)OCCO4)cc2)N(C)C)cc1 (stereo not given),"inconclusive: 13.1 µM [inhibitor, partial curve]",–
COC(=O)Nc1ccc(S(=O)(=O)NCc2ccccn2)cc1,"inconclusive: 4.65 µM [inhibitor, single point]",–
COc1ccc(CN2CCNC(=O)C2CC(=O)N(C)CC2CCOCC2)cc1OC (stereo not given),"inconclusive: 5.22 µM [inhibitor, partial curve, poor fit]",–
CNC(=O)c1c(NC(=O)CS(=O)(=O)c2ccc(Cl)cc2)sc(C)c1C,"inconclusive: 18.5 µM [inhibitor, single point]",–
CC(C)(C)c1nnc(SCC(=O)Nc2ccc(N3CCCCC3)cc2)n1N,inactive,–
O=C(NN=C1C2CC3CC(C2)CC1C3)c1cccs1,inactive,–
CCOc1ccc(N2C(=O)CSC23CCCCC3)cc1,"inconclusive: 2.33 µM [inhibitor, partial curve, poor fit]",–
O=C(Nc1ccc(F)cc1)c1ccc2snnc2c1,inactive,–
CC(C)n1cc(/C=C(\C#N)S(=O)(=O)c2ccccc2)c2ccccc21,inactive,–
COC(=O)[C@H](c1ccccc1Cl)N1CCc2sccc2C1,active: 8.28 µM,–
CCCOC(=O)c1ccc(NC(=O)Cc2cccs2)cc1,inactive,–
Cc1ccc(CNC(=O)CCN2C(=O)[C@@H]3Cc4ccccc4CN3C2=O)cc1,inactive,–
CCOc1cc(C(=O)N2CCN(C/C=C/c3ccccc3)CC2)cc(OCC)c1OCC,active: 5.22 µM,–
COc1ccc2nc(Sc3c([N+](=O)[O-])nc(C)n3Cc3ccccc3)[nH]c2c1,"inconclusive: 11.7 µM [inhibitor, single point]",–
Cc1cc(C(=O)N/N=C/c2cc(Br)cc(Br)c2OC(=O)c2cccc(F)c2)n[nH]1,"inconclusive: 11.7 µM [inhibitor, single point]",–
Clc1ccc(CN2CC[C@H]3C=CCc4cccc(c43)C2)cc1,active: 1.85 µM,–
COc1ccc(C(CNC(=O)c2cccc(NS(=O)(=O)c3ccc(C)c(F)c3)c2)N2CCCC2)cc1 (stereo not given),"inconclusive: 13.1 µM [inhibitor, single point]",–
CCc1ccc(C2N3CC4([N+](=O)[O-])CN2CC([N+](=O)[O-])(C3)C4(C)C)cc1 (stereo not given),"inconclusive: 2.33 µM [inhibitor, single point]",–

SMILES,Potency,"activity change, negative = inhibition"
CCC1C(=O)NCCN1C(=O)c1cccc(OC2CCN(S(=O)(=O)N(C)C)CC2)c1 (stereo not given),inactive,–
CCCNC(=O)N1[C@H]2CC[C@@H]1C(C(=O)OC)=C(c1ccc(Cl)c(C(F)(F)F)c1)C2,"inconclusive: 3.29 µM [inhibitor, partial curve, poor fit]",–
COC(CN(C(=O)CCl)C(C(=O)NC1CCCCC1)c1ccc(Cl)cc1)OC (stereo not given),active: 2.94 µM,–
O=C(Nc1ccc2nn(-c3ccccc3)nc2c1)c1ccc2c(c1)OCCO2,inactive,–
O=C(Nc1ccc2nsnc2c1)NC1CCCCC1,inactive,–
C[C@@H]1CC=C[C@H]2[C@H]1C(=O)N(Cc1ccccc1)[C@H]2c1ccc(-c2ccc(N(C)C)cc2)cc1F,"inconclusive: 1.85 µM [inhibitor, full curve]",–
COc1ccc(C(=O)OCC(=O)c2cc(C)n(CC3CCCO3)c2C)cc1[N+](=O)[O-] (stereo not given),"inconclusive: 10.4 µM [inhibitor, partial curve, poor fit]",–
CCC(=O)Nc1ccc(OCc2nc3ccccc3s2)cc1,inactive,–
COc1ccc2ccc3c(c2c1)N=C[C@]1(O3)N(C)c2ccccc2C1(C)C,active: 6.57 µM,–
CN(C)C(=O)c1ccc(NC(=O)CC2SC(N3CCCC3)=NC2=O)cc1 (stereo not given),inactive,–
N#CN(CC(N)=O)c1nc(N2CCCCC2)nc(N2CCCCC2)n1,inactive,–
CSc1ccccc1-c1nnc(-c2ccccc2)o1,inactive,–
CCCCc1ccc(NC(=O)COc2ccc(C(=O)Nc3ccccc3OCC)cc2)cc1,"inconclusive: 18.5 µM [inhibitor, single point]",–
CCC1CCCCN1Cc1nc2ccccc2c(=O)n1CC(C)=O (stereo not given),"inconclusive: 0.037 µM [inhibitor, full curve, poor fit]",–
CC(CCc1ccccc1)NC(=O)c1ccc(Br)cc1 (stereo not given),"inconclusive: 0.0294 µM [inhibitor, full curve, poor fit]",–
Cc1ccn(CC(=O)N2CCCC(N3CCN(Cc4ccc5c(c4)OCO5)CC3)C2)n1 (stereo not given),"inconclusive: 2.33 µM [inhibitor, full curve]",–
CC1(c2ccc([N+](=O)[O-])cc2)CC(C)(C)N(C(=O)c2ccccc2)c2ccccc21 (stereo not given),"inconclusive: 18.5 µM [inhibitor, single point]",–
COc1ccc(S(=O)(=O)N(C)CC(=O)NCCC2=CCCCC2)cc1C,"inconclusive: 6.57 µM [inhibitor, partial curve, poor fit]",–
O=C(CSc1nc2ccccc2s1)N1c2ccccc2Sc2ccc(C(F)(F)F)cc21,"inconclusive: 1.65 µM [inhibitor, full curve]",–
Cc1ccc(-c2csc(NC(=O)C3=NN(c4ccccc4)C(=O)CC3)n2)cc1,"inconclusive: 10.4 µM [inhibitor, partial curve]",–
COc1ccc(-n2nc(C(C)=O)c(=O)[nH]c2=O)cc1,–,inactive: 33.1% [at 1.15 µM]
Cc1ccc2c(c1)C(c1ccccc1)N(C(=O)c1cccc([N+](=O)[O-])c1)CC(=O)N2 (stereo not given),inactive,–
CCSc1nnc(NC(=O)C2C3C=CC(C3)C2C(=O)O)s1 (stereo not given),"inconclusive: 10.4 µM [inhibitor, single point]",–
COc1ccccc1C(=O)NCC(=O)N1CCN(c2ncccn2)CC1,inactive,–

# 5 compounds out of the list, sorted by SMILES length, falling.
SMILES,Potency,"activity change, negative = inhibition"
CCc1ccc(C2N3CC4([N+](=O)[O-])CN2CC([N+](=O)[O-])(C3)C4(C)C)cc1 (stereo not given),"inconclusive: 2.33 µM [inhibitor, single point]",–
Cc1ccc(CNC(=O)CCN2C(=O)[C@@H]3Cc4ccccc4CN3C2=O)cc1,inactive,–
CCN(CC)C(=O)CC(c1ccc(F)cc1)c1ccc(OC(C)C)cc1 (stereo not given),inactive,–
CC(CCc1ccccc1)NC(=O)c1ccc(Br)cc1 (stereo not given),"inconclusive: 0.0294 µM [inhibitor, full curve, poor fit]",–
CSc1ccccc1-c1nnc(-c2ccccc2)o1,inactive,–

# Remaining list, next part.

SMILES,Potency,"activity change, negative = inhibition"
COc1ccccc1CCNC(=O)C(=O)NCC1OCCCN1S(=O)(=O)c1cc(C)ccc1C (stereo not given),"inconclusive: 7.38 µM [inhibitor, partial curve]",–
Cc1c(Cc2ccc3c(c2)OCO3)sc(NC(=O)C(C)(C)C)c1C#N,"inconclusive: 18.5 µM [inhibitor, single point]",–
Cc1cc(C)cc(NC(=O)CNC(c2ccccc2)c2ccccc2)c1,"inconclusive: 18.5 µM [inhibitor, single point]",–
CC(C)N1CCc2c(sc(NC(=S)NC(=O)c3ccccc3)c2C#N)C1,active: 0.465 µM,–
CCOc1cc(N2CCOCC2)c(OCC)cc1NC(=O)CCS(=O)(=O)c1ccc(Cl)cc1,active: 7.38 µM,–
O=C(c1ccco1)N1N=C(c2ccc(Br)cc2)CC1c1ccco1 (stereo not given),"inconclusive: 9.28 µM [inhibitor, single point]",–
CCOc1ccc(-c2noc(CCC(=O)NCCc3ccccc3)n2)cc1OC,"inconclusive: 18.5 µM [inhibitor, single point]",–
Cc1ccc(NC2=CC(=O)CCC2)cc1C,"inconclusive: 1.85 µM [inhibitor, full curve]",–
O=C(NC1CCCC1)C(c1cccs1)N(CC1CCCO1)C(=O)Cc1cccs1 (stereo not given),"inconclusive: 10.4 µM [inhibitor, partial curve, poor fit]",–
C=CCn1cnc2c(c1=O)c1nc3ccccc3nc1n2/N=C/c1cccc(OC)c1,"inconclusive: 9.28 µM [inhibitor, partial curve, poor fit]",–
CCOC(=O)Cc1nnc(NC(=O)c2cccc(OCC)c2)s1,"inconclusive: 16.5 µM [inhibitor, single point]",–
O=C(c1cccs1)N(c1cccc(Cl)c1)C1C=CS(=O)(=O)C1 (stereo not given),"inconclusive: 0.37 µM [inhibitor, full curve, poor fit]",–
O=C(O)c1cccc2c1NC(C(=O)O)C1CC(Sc3ccccc3[N+](=O)[O-])C(Cl)C21 (stereo not given),"inconclusive: 2.62 µM [inhibitor, single point]",–
CCn1c(CCNC(=O)c2ccco2)nc2ccccc21,active: 9.28 µM,–
Clc1ccccc1Nc1nc(-c2cccnc2)cs1,inactive,–
O=c1cc(CSc2ccc(Cl)cc2)nc(-c2ccccn2)[nH]1,active: 1.85 µM,–
COc1ccccc1[As](=O)(O)CC(O)COc1ccc(Cl)cc1Cl (stereo not given),"inconclusive: 0.0033 µM [inhibitor, full curve, poor fit]",–
CC1=NN(C(N)=S)C(=O)C1N=Nc1ccc(C)c(Br)c1 (stereo not given),inactive,–
COc1ccc(-c2noc(CCN3C(=O)c4ccccc4C3=O)n2)cc1OC,inactive,–
Cn1c(=O)n(Cc2ccccc2F)c(=O)c2c1nc1n2CCCN1CCc1ccccc1,"inconclusive: 0.465 µM [inhibitor, full curve]",–
COc1ccc(OCc2n(CC(=O)OC3CC(C)CCC3C(C)C)c3ccccc3[n+]2C)cc1 (stereo not given),"inconclusive: 1.04 µM [inhibitor, full curve]",–
COC(=O)C1=C(c2ccc(OC(F)(F)F)cc2)C[C@@H]2CC[C@H]1N2C(=O)NCc1cc(C)oc1C(F)(F)F,active: 8.28 µM,–
